PubChem BioAssay AID1347075 (National Center for Advancing Translational Sciences (NCATS), 2019)
Out of some 400,000 compounds screened, about 5,500 (1.4%) were called active. Inconclusive results, whose numbers are uncertain, are shown with a selection of clear calls. The call rests on the fitted dose curve; in most records, active means well fitted cell-killing curve with a large enough effect; inconclusive means small, poorly fitted or top-dose-only effect, or effect the other way; inactive means flat fitted curve, though single readings scatter. Potencies beside an inconclusive call are fits to weak or partial responses and may not hold up.

Experiment: qHTS assay for MDR1-selective chemotherapeutics: Primary screen using the parental adenocarcinoma cell KB-3-1; further: nearly all actives have a fitted effect of over 60% in size
Settings: KB-3-1 viability, CellTiter-Glo ATP luminescence, 72 h; activity change, negative = cytotoxic: at 46.1 µM (top of the series)
Summary of the method: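 KB-3-1 cells, DMEM (no phenol red) + 10% FBS; compound by pin transfer, 72 h, 37 °C. Readout: CellTiter-Glo luminescence after 10 min. Data normalized, curve-fitted.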
On the % scale 0 is the no-effect control and ±100 the full control effect; potency means the concentration at half of the fitted maximal effect.

Which “activity change, negative = cytotoxic” value does the source give for `CCc1nc2ccccc2[nH]c1=O` here?
Its value is inactive: -22.1%.

With `CCCNC1=C(N(C(C)=O)c2cccc(F)c2)C(=O)c2ccccc2C1=O` as the molecule, how does the Potency read?
The Potency was active: 1.3 µM.

With `CC[n+]1c(-c2ccccc2)csc1Nc1c(C)n(C)n(-c2ccccc2)c1=O` as the molecule, how does the Potency read?
The Potency was inconclusive: 32.6 µM [cytotoxic, single point].

Which Potency does the source give for `Cc1ccc(N=c2ssnc2Cl)cc1` here?
The Potency was inconclusive: 29.1 µM [cytotoxic, single point].

Which “activity change, negative = cytotoxic” value does the source give for `O=C(CCS(=O)(=O)c1cc2c3c(c1)CCN3C(=O)CC2)Nc1cccc(Br)c1` here?
Its value is inactive: 6.31%.

Which “activity change, negative = cytotoxic” value does the source give for `COc1cccc(C(=O)Nc2ccc3ccccc3c2)c1` here?
Its value is inactive: -25.9%.

With `Cc1c(Cl)cccc1NC(=O)C1C2C=CC(C2)C1C(=O)O` (configuration not stated) as the molecule, how does the “activity change, negative = cytotoxic” value read?
The value was inactive: -24.1%.

For `Cn1c(=O)c2cc(NC(=O)NCc3ccccc3)ccc2n1C/C=C/c1ccccc1`, which Potency is on record?
Its Potency is inconclusive: 29.1 µM [cytotoxic, single point].

For `Cc1snc(S(=O)(=O)/C(C#N)=N/Nc2ccc(C(F)(F)F)cc2)c1C#N`, which Potency is on record?
Its Potency is inconclusive: 20.6 µM [cytotoxic, partial curve, poor fit].

Which “activity change, negative = cytotoxic” value does the source give for `Cc1cn(CC(=O)NCc2ccc3c(c2)OCO3)c(=O)[nH]c1=O` here?
Its value is inactive: 0%.

Which Potency does the source give for `CC(Oc1ccc(F)cc1)C(=O)Nc1nc(-c2ccccn2)cs1` (configuration not stated) here?
The Potency was inconclusive: 3.26 µM [cytotoxic, partial curve, poor fit].

Which Potency does the source give for `C[C@]12c3[nH]c4cc(-c5ccco5)ccc4c3CCN1C(=O)[C@@H](CC(=O)NCCC1=CCCCC1)C[C@@H]2C(=O)N1CCCCC1` here?
Its Potency is inconclusive: 29.1 µM [cytotoxic, single point].

Which Potency does the source give for `CCCCc1nc2ccccc2c(=O)n1NC(=O)c1c(O)c2ccccc2n(C)c1=O` here?
Its Potency is active: 13 µM.

With `Nc1ccc2oc(-c3ccccc3Cl)cc(=O)c2c1O` as the molecule, how does the Potency read?
The Potency was active: 7.31 µM.

With `Cc1cccc(C2c3[nH]c4ccccc4c3CCN2C(=O)c2noc3c2CCCC3)n1` (configuration not stated) as the molecule, how does the Potency read?
Its Potency is inconclusive: 29.1 µM [cytotoxic, single point].

For `COc1ccccc1-c1nnc(NC(=O)c2ccc(S(=O)(=O)N3CCCC3)cc2)o1`, which Potency is on record?
The Potency was inconclusive: 16.4 µM [cytotoxic, single point].

Which Potency does the source give for `CC(=O)N1CCSc2ccc(S(=O)(=O)NCc3ccc(F)cc3)cc21` here?
Its Potency is inconclusive: 0.206 µM [cytotoxic, full curve, poor fit].

Which Potency does the source give for `CCCCCn1c2c(c(=N)c3ccccc31)CCC2` here?
Its Potency is active: 3.66 µM.

For `O=C(CCC1N=C2c3ccccc3N=C(SCC(=O)Nc3ccc(F)cc3)N2C1=O)NCc1cccs1` (configuration not stated), which “activity change, negative = cytotoxic” value is on record?
Its value is inactive: 0.441%.

With `N#CC(c1ccccn1)(c1ncc(C(F)(F)F)cc1Cl)N1CCOCC1` (configuration not stated) as the molecule, how does the Potency read?
Its Potency is inconclusive: 29.1 µM [cytotoxic, single point].

With `Cc1cc(SCc2ccc(Cl)cc2Cl)nc(=O)[nH]1` as the molecule, how does the Potency read?
Its Potency is inconclusive: 23.1 µM [cytotoxic, single point].

For `O=C(CSc1ncc(-c2ccc(F)cc2)n1Cc1ccco1)Nc1nccs1`, which Potency is on record?
Its Potency is inconclusive: 32.6 µM [cytotoxic, single point].

Which Potency does the source give for `O=C(CCN1CCN(Cc2ccccc2)CC1)Nc1ccc(OCc2ccccc2)cc1` here?
The Potency was inconclusive: 23.1 µM [cytotoxic, single point].

With `COCC(C)n1c(C)cc(C(=O)CSc2nc3ccccc3c(=O)[nH]2)c1C` (configuration not stated) as the molecule, how does the Potency read?
Its Potency is active: 20.6 µM.

With `c1ccc2c(c1)oc1c(N3CCN(Cc4ccc5c(c4)OCO5)CC3)ncnc12` as the molecule, how does the Potency read?
Its Potency is inconclusive: 29.1 µM [cytotoxic, single point].

Which “activity change, negative = cytotoxic” value does the source give for `CSc1nsc(SCC(=O)NCc2ccccc2)n1` here?
The value was inactive: 4.89%.

Which Potency does the source give for `Cc1ccc(S(=O)(=O)n2c3ccc(Cl)cc3c3nc(C)sc32)cc1` here?
The Potency was inconclusive: 7.31 µM [cytotoxic, partial curve].

For `FC(F)(F)c1nnc2n1N=C(c1cccs1)CS2`, which Potency is on record?
Its Potency is inconclusive: 25.9 µM [cytotoxic, single point].

With `CC1(C2CC2)NC(=O)N(CC(=O)NCc2ccc(Cl)cc2Cl)C1=O` (configuration not stated) as the molecule, how does the “activity change, negative = cytotoxic” value read?
Its value is inactive: 7.89%.

For `COCCn1c(C)cc(C(=O)COC(=O)c2n[nH]c3ccccc23)c1C`, which “activity change, negative = cytotoxic” value is on record?
Its value is inactive: 6.01%.

Which Potency does the source give for `COc1ccc(C(=O)Cn2c(Br)nc3c2c(=O)n(C)c(=O)n3C)cc1` here?
Its Potency is inconclusive: 20.6 µM [cytotoxic, single point].

With `O=S(=O)(c1cccc(Cl)c1)N1CCN(c2nc(-c3ccccc3)nc3ccccc23)CC1` as the molecule, how does the activity change, negative = cytotoxic read?
The activity change, negative = cytotoxic was inconclusive: -10.2%.

With `Cc1ccc(Cn2ncc3c(NN)ncnc32)cc1` as the molecule, how does the Potency read?
Its Potency is inconclusive: 29.1 µM [cytotoxic, single point].

For `COc1ccc2c(c1)O[C@H](c1ccc3c(c1)OCO3)[C@@H](O)C2=O`, which Potency is on record?
The Potency was inconclusive: 16.4 µM [cytotoxic, single point].

For `CCOC(=O)C1=C(C)NC(C)=C(C(=O)OCC)C1C(=O)OCC(=O)NC(C)c1ccccc1` (configuration not stated), which Potency is on record?
The Potency was inconclusive: 32.6 µM [cytotoxic, single point].

Which Potency does the source give for `CO/N=C\CC(=O)Nc1ccc(Cl)c(Cl)c1` here?
Its Potency is active: 7.31 µM.

With `Cc1cc(F)ccc1NC(=S)NC1CCCC1` as the molecule, how does the “activity change, negative = cytotoxic” value read?
The value was inactive: -23.5%.

Which “activity change, negative = cytotoxic” value does the source give for `CC(=O)c1ccc(CCCCc2ccc(C(C)=O)cc2)cc1` here?
The value was inactive: 6.93%.

With `NNc1nc2c(-c3cccc(C(F)(F)F)c3)nnn2c2ccccc12` as the molecule, how does the Potency read?
Its Potency is inconclusive: 29.1 µM [cytotoxic, single point].

For `Cn1c2ccccc2c2ccc3c(c21)C(=O)C=CC3=O`, which Potency is on record?
Its Potency is inconclusive: 29.1 µM [cytotoxic, single point].

With `COc1cc(/C=N/N2CCCCC2)cc([N+](=O)[O-])c1O` as the molecule, how does the activity change, negative = cytotoxic read?
Its activity change, negative = cytotoxic is inconclusive: -15.9%.

Which Potency does the source give for `O=C(CNS(=O)(=O)c1ccc2c(c1)OCCCO2)N1CCN(c2ccc(F)cc2)CC1` here?
The Potency was inconclusive: 14.6 µM [cytotoxic, partial curve, poor fit].

For `COc1cc(-c2nc(-c3cccc(C(F)(F)F)c3)no2)cc(OC)c1OC`, which Potency is on record?
Its Potency is inconclusive: 29.1 µM [cytotoxic, single point].

Which “activity change, negative = cytotoxic” value does the source give for `COc1ccccc1-n1cnc2c(c1=O)c1nc3ccccc3nc1n2-c1ccc(C)cc1` here?
The value was inactive: -0.578%.

For `COc1ccc(O)c(-c2cc(-c3ccccc3[N+](=O)[O-])[nH]n2)c1`, which Potency is on record?
Its Potency is inconclusive: 5.17 µM [rising, full curve].

For `CCOC(=O)N1CCN(C(=O)c2ccc3c(c2)N=C(C)c2cc(Cl)ccc2S3)CC1`, which Potency is on record?
Its Potency is inconclusive: 29.1 µM [cytotoxic, single point].

For `O=c1[nH]cnc2c1cnn2Cc1ccccc1Cl`, which “activity change, negative = cytotoxic” value is on record?
Its value is inactive: -2.02%.

For `COc1ccc(CC(=O)N2CCc3cc(OC)c(OC)cc3C2COc2ccc(F)cc2)cc1OC` (configuration not stated), which “activity change, negative = cytotoxic” value is on record?
Its value is inactive: 1.03%.

For `COc1ccc(C(=O)Nc2nc(-c3ccc(S(=O)(=O)N4CCOCC4)cc3)cs2)cc1`, which Potency is on record?
The Potency was inconclusive: 18.4 µM [cytotoxic, single point].

With `O=C(/C=C/c1cccc(Br)c1)NCc1ccncc1` as the molecule, how does the “activity change, negative = cytotoxic” value read?
Its value is inactive: 1.69%.

Which “activity change, negative = cytotoxic” value does the source give for `Cc1cccc(C2=NN(c3ccccc3)[C@H](CO)[C@H]2c2ccccc2)c1` here?
Its value is inactive: 1.29%.

For `Cc1cccc(/C=N/NC(=O)c2c(-c3ccccc3)noc2C)c1O`, which Potency is on record?
The Potency was inconclusive: 32.6 µM [cytotoxic, single point].

Which Potency does the source give for `COCCNC(=O)c1ccc2c(c1)N=C(C)c1cc(C)ccc1S2` here?
Its Potency is active: 0.651 µM.

For `CCCS(=O)(=O)NC(=O)C1(C)CCN(C(=O)c2cccs2)C1` (configuration not stated), which activity change, negative = cytotoxic is on record?
The activity change, negative = cytotoxic was inconclusive: -3.98%.

Which Potency does the source give for `Cc1cc(C)c(CN2CCN(C(=O)Cn3cnc4c(OCc5ccccc5)ncnc43)CC2)c(C)c1` here?
Its Potency is inconclusive: 2.31 µM [cytotoxic, partial curve, poor fit].

With `CCOC(=O)C1=C(CN2CCN(C(=O)c3ccco3)CC2)NC(=O)NC1c1ccc(F)cc1` (configuration not stated) as the molecule, how does the “activity change, negative = cytotoxic” value read?
Its value is inactive: -15.7%.

Which “activity change, negative = cytotoxic” value does the source give for `O=C(CSc1ccccc1)NCC1(N2CCOCC2)CCCCC1` here?
The value was inactive: 1.75%.

With `CCOc1ncccc1C(=O)NCc1ccc(OC)cc1` as the molecule, how does the Potency read?
Its Potency is active: 14.6 µM.

For `O=C(Nc1ccc(-c2nc3cc(NC(=O)c4cccs4)ccc3o2)cc1)c1cccs1`, which Potency is on record?
Its Potency is inconclusive: 17.8 µM [cytotoxic, single point].

With `Cn1c(Oc2ccc(Cl)cc2)nc2c1c(=O)n(Cc1ccc(F)cc1)c(=O)n2C` as the molecule, how does the “activity change, negative = cytotoxic” value read?
The value was inactive: 3.48%.

Which “activity change, negative = cytotoxic” value does the source give for `COc1cc(OC)c(OC)cc1CNC(=O)c1cc(S(=O)(=O)N(C)c2ccccc2OC)ccc1C` here?
Its value is inactive: -11.1%.

With `N=c1c2c(n(Cc3cccc(Cl)c3)c3c1CCC3)CCCC2` as the molecule, how does the Potency read?
The Potency was inconclusive: 2.31 µM [cytotoxic, full curve, poor fit].

With `Cc1cccn2c(=O)c3cc(C(=O)NC4CCCCC4)c(=N)n(Cc4ccccc4)c3nc12` as the molecule, how does the Potency read?
Its Potency is inconclusive: 23.1 µM [cytotoxic, single point].

For `COc1ccc(-c2cc3nc(C)cc(N4CCN(C(=O)c5cccnc5)CC4)n3n2)cc1`, which Potency is on record?
The Potency was inconclusive: 29.1 µM [rising, single point].

With `COc1cc(Cl)c(C)cc1NC(=O)c1cnc(N2CCOCC2)c2ccccc12` as the molecule, how does the Potency read?
The Potency was inconclusive: 16.4 µM [cytotoxic, single point].

For `Cc1ccccc1NC(=O)CSc1nc2cc3c(cc2cc1C)CCC3`, which Potency is on record?
Its Potency is inconclusive: 2.91 µM [cytotoxic, partial curve, poor fit].

With `O=c1c2[nH]c3ccccc3c2ncn1Cc1cccnc1` as the molecule, how does the Potency read?
Its Potency is inconclusive: 18.4 µM [rising, partial curve].

For `Cc1cccc(COc2ccccc2/C=N/Nc2ccc([N+](=O)[O-])cc2)c1`, which Potency is on record?
The Potency was inconclusive: 18.4 µM [cytotoxic, single point].

Which Potency does the source give for `CC(C)(C)Nc1nc(Oc2ccc(=O)n(-c3ccccc3)n2)nc(N2CCOCC2)n1` here?
The Potency was inconclusive: 29.1 µM [cytotoxic, single point].

Which Potency does the source give for `COc1ccc(C(=O)c2[nH]c(N)c(C(=O)NCCc3c[nH]c4ccccc34)c2-c2ccc(Cl)c(F)c2)cc1` here?
The Potency was inconclusive: 29.1 µM [cytotoxic, single point].

With `Cc1ccc(OCC(=O)OCc2cc(=O)n3nc(C4CC4)sc3n2)cc1` as the molecule, how does the “activity change, negative = cytotoxic” value read?
The value was inactive: 0.043%.

For `Cc1cc(C)n(C(C)CC(=O)NCc2ccc(Cl)cc2)n1` (configuration not stated), which “activity change, negative = cytotoxic” value is on record?
The value was inactive: 0.753%.
